These are yes or no findings as the source states them, for the method shown. Some binding calls cover weakened binding; strength is not graded here.
Target: 人SIRPβ-ECD-His抗原 (human) (UniProt O00241)
Assay: indirect ELISA, human SIRPβ-ECD-His coated

Amino acid sequences for entries named in this document (tags omitted). A change or cut given only in a name is not applied to a line headed by its entry.
UniProt O00241: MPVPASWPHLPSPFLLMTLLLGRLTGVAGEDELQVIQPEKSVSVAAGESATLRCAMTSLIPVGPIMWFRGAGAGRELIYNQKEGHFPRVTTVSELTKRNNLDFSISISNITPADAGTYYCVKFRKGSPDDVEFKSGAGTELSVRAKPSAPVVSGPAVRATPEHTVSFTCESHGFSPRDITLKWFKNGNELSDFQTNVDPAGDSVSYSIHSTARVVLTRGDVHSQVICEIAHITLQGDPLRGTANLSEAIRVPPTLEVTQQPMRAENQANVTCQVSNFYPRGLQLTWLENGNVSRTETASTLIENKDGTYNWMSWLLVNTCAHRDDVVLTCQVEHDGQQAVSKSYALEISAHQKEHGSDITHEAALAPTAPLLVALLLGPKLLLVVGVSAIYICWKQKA

binding: binds
B1: Benchmark (KWAR23抗体) (antibody, human IgG4 S228P, kappa, V domains shown)
VH: EVQLQQSGAELVKPGASVKLSCTASGFNIKDYYIHWVQQRTEQGLEWIGRIDPEDGETKYAPKFQDKATITADTSSNTAYLHLSSLTSEDTAVYYCARWGAYWGQGTLVTVSA
VL: QIVLTQSPAIMSASPGEKVTLTCSASSSVSSSYLYWYQQKPGSSPKLWIYSTSNLASGVPARFSGSGSGTSYSLTISSMEAEDAASYFCHQWSSYPRTFGAGTKLELKR

Reference: patent CN111995682A
